# These are yes or no findings as the source states them, for the method shown. Binding seen in cells or lysates may run through a third protein. Binding can be weak; no strength is given.
# Target: T1, T-box transcription factor 5 (TBX5), in HEK293T cells for coimmunoprecipitation with SIRT3 (UniProt Q99593)
# T1 sequence: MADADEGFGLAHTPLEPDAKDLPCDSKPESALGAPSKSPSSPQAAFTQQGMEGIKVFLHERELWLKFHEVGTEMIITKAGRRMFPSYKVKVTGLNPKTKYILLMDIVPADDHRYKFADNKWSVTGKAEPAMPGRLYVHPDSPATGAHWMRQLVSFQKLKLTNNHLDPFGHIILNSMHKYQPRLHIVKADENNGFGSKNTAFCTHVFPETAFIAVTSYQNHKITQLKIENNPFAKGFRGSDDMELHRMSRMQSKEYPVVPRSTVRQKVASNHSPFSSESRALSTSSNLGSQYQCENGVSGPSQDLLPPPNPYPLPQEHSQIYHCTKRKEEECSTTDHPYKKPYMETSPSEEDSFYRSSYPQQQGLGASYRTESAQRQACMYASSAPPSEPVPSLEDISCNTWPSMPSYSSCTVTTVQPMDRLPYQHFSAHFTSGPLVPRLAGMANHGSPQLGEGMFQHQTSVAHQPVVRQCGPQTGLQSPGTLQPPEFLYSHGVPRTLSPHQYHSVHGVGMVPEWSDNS
# Experiment: co-IP; coimmunoprecipitation of SIRT3 and TBX5 in HEK293T cells
substance,measurement,value
"SIRT3, in HEK293T cells for coimmunoprecipitation with TBX5 (enzyme)",binding,binds

# Source: PMC9130917
